Among all 580,000 compounds or so, about 6,100 (1.1%) were called active. Inconclusive results, whose numbers are uncertain, are shown with a selection of clear calls. The call rests on the fitted dose curve; in most records, active means well fitted inhibition curve with a large enough effect; inconclusive means small, poorly fitted or top-dose-only effect, or another doubt; inactive means no such curve, though single readings can be large or run the other way. Potencies beside an inconclusive call are fits to weak or partial responses and may not hold up.
The compounds below were run against Polyunsaturated fatty acid lipoxygenase ALOX12 (Homo sapiens) (UniProt P18054) (assay: Primary qHTS assay for inhibitors of human arachidonate 12S-lipoxygenase (ALOX12): Round 2). Settings: purified 12hLO, xylenol orange hydroperoxide absorbance; activity change, negative = inhibition: at 108 µM (top of the series) unless noted.
Summary of the method: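 Purified human 12hLO at 150 nM in 25 mM Hepes, 0.01% Triton X-100, pH 7.0, preincubated 15 min at room temperature with compound. Reaction started with 40 uM arachidonic acid, 30 min at room temperature. Hydroperoxide measured by Fe-xylenol orange, 573/405 nm absorbance ratio.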
On the % scale 0 is the no-effect control and ±100 the full control effect; potency means the concentration at half of the fitted maximal effect.

Chains of the proteins cited; added tags and fusions are not shown.
UniProt P18054, whole entry, looked up: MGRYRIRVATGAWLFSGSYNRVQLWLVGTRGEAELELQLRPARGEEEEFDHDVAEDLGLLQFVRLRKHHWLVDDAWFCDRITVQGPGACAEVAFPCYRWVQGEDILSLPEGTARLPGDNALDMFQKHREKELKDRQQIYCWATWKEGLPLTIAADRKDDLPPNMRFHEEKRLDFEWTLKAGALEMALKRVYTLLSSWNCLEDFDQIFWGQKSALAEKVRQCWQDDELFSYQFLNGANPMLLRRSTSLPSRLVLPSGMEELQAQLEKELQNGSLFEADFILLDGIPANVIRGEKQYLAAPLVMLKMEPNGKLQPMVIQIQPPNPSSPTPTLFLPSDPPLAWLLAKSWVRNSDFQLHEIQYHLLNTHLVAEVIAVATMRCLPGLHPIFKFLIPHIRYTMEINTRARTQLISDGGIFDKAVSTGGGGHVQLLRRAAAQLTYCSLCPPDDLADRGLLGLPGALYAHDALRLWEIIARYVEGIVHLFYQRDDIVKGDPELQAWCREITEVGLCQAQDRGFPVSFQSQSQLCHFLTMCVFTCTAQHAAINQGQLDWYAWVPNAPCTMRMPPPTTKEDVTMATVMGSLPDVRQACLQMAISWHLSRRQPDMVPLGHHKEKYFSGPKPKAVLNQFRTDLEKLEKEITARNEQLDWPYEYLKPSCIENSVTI

Question: How did the “activity change, negative = inhibition” value turn out when `Cc1ccc(C2Cn3nnc(C(=O)N4CCN(C(=O)Cc5cccc(F)c5)CC4)c3CO2)cc1` (stereo unspecified) was run?
Answer: Its value is inactive: 38.3%.

Question: How did the “activity change, negative = inhibition” value turn out when `O=S(=O)(NC1CCSc2c(F)cccc21)c1ccccc1` (stereo unspecified) was run?
Answer: The value was inactive: 0%.

Question: With `COc1ccc(-c2nn(-c3ccc(F)cc3)c(OC(C)=O)c2-c2ccc(NC(C)=O)cc2)cc1OC` as the compound, how does the Potency read?
Answer: The Potency was active: 11.2 µM.

Question: For `CCC(Oc1ccccc1F)C(=O)NCc1csc(-c2ccccc2)n1` (stereo unspecified), which “activity change, negative = inhibition” value is on record?
Answer: Its value is inactive: 29.8%.

Question: `CCOc1cc2[nH]c(=O)n(Cc3ccc(C(=O)N4CCN(c5cccc(Cl)c5)CC4)cc3)c(=O)c2cc1OCC` was tested. Which Potency did it give?
Answer: Its Potency is inconclusive: 112 µM [inhibitor, single point].

Question: Which Potency does the source give for `COc1ccc(NS(=O)(=O)c2ccc3oc(SC(C)C(=O)N4CCC(C)CC4)nc3c2)cc1` (stereo unspecified) here?
Answer: The Potency was inconclusive: 112 µM [inhibitor, single point].

Question: With `O=C(NCC1CCOCC1)c1ccc(-c2ccc(F)c(F)c2)c2ccoc12` as the compound, how does the Potency read?
Answer: Its Potency is inconclusive: 89.1 µM [inhibitor, single point].

Question: How did the Potency turn out when `Cc1nn(-c2ccccc2)c(C)c1NC(=O)COC(=O)[C@@H](NC(=O)c1ccccc1)C(C)C` was run?
Answer: The Potency was inconclusive: 100 µM [inhibitor, single point].

Question: Which “activity change, negative = inhibition” value does the source give for `COc1ccc(CC(=O)Nc2c(C(=O)N3CCN(c4ccccc4OC)CC3)oc3ccccc23)cc1OC` here?
Answer: Its value is inactive: 13.7%.

Question: `CN1CCC(NC[C@H]2O[C@@H]3C[C@@H](CC(=O)N4CCOCC4)O[C@@H]3[C@@H]2O)CC1` was tested. Which Potency did it give?
Answer: Its Potency is inconclusive: 100 µM [inhibitor, partial curve, poor fit].

Question: With `O=C(O)CCCN1CCCC1` as the compound, how does the Potency read?
Answer: The Potency was inconclusive: 31.6 µM [inhibitor, partial curve, poor fit].

Question: How did the Potency turn out when `CCCc1cc(-c2n[nH]c(=S)n2C(C)c2ccccc2)cs1` (stereo unspecified) was run?
Answer: Its Potency is inconclusive: 28.2 µM [inhibitor, full curve, poor fit].

Question: How did the “activity change, negative = inhibition” value turn out when `Cc1[nH]c2ccccc2c1C(=O)C(=O)N(C)C1CCS(=O)(=O)C1` (stereo unspecified) was run?
Answer: Its value is inactive: 22.3%.

Question: Which “activity change, negative = inhibition” value does the source give for `Cc1ccccc1CN1CCN(C(=O)c2cccc3cccnc23)CC1` here?
Answer: The value was inactive: 8.13%.

Question: `CCCOc1cccn2c(N(C=O)Cc3ccc(OC)cc3)c(CC)nc12` was tested. Which Potency did it give?
Answer: The Potency was inconclusive: 10 µM [inhibitor, partial curve, poor fit].

Question: For `CCC(CC)NC(=O)c1cc(S(C)(=O)=O)ccc1C`, which Potency is on record?
Answer: The Potency was inconclusive: 141 µM [inhibitor, partial curve, poor fit].

Question: With `Cc1ccc(C)n1C1C(=O)N(Cc2ccc(C(F)(F)F)cc2)c2ccc(F)cc21` (stereo unspecified) as the compound, how does the Potency read?
Answer: Its Potency is active: 25.1 µM.

Question: `O=C(CN1CCCc2nc(-c3ccccc3)ncc2C1=O)NC1CC1` was tested. Which “activity change, negative = inhibition” value did it give?
Answer: The value was inactive: 6.75%.

Question: `COc1ccc(Br)cc1CN1C(=O)c2ccccc2C1C(=O)NC1CCCCCC1` (stereo unspecified) was tested. Which Potency did it give?
Answer: The Potency was inconclusive: 141 µM [inhibitor, partial curve, poor fit].

Question: `Cc1cc(C(=O)COC(=O)C2=NNC(=O)CC2)c(C)n1-c1ccc(OC(F)F)cc1` was tested. Which Potency did it give?
Answer: Its Potency is inconclusive: 50.1 µM [inhibitor, partial curve, poor fit].

Question: For `CN(C)CCCNC(=O)c1ccc(-c2nc(-c3ccc(Cl)cc3)cs2)cc1`, which Potency is on record?
Answer: Its Potency is inconclusive: 50.1 µM [inhibitor, partial curve, poor fit].

Question: Which Potency does the source give for `Cc1noc(C)c1CNCC1(CO)C[C@@H](O)[C@@H](O)C1` (stereo partly specified) here?
Answer: Its Potency is inconclusive: 56.2 µM [inhibitor, partial curve].

Question: Which Potency does the source give for `CC1CCCCN1C(=O)c1cc(S(=O)(=O)N2CCOCC2)ccc1Cl` (stereo unspecified) here?
Answer: Its Potency is inconclusive: 3.55 µM [inhibitor, full curve, poor fit].

Question: Which Potency does the source give for `NS(=O)(=O)c1ccc(CCNC(=O)c2cc([N+](=O)[O-])ccc2N2CCCCC2)cc1` here?
Answer: The Potency was inconclusive: 2.82 µM [inhibitor, full curve, poor fit].

Question: How did the Potency turn out when `S=C(NCCc1ccc(Cl)cc1)Nc1ccc(Oc2ccccc2)cc1` was run?
Answer: Its Potency is active: 17.8 µM.

Question: Which Potency does the source give for `O=C(Cn1c(=O)c2c(ncn2C2CCCC2)n(Cc2ccccc2)c1=O)Nc1ccccc1` here?
Answer: Its Potency is inconclusive: 14.1 µM [inhibitor, full curve, poor fit].

Question: For `Cc1cc(C)cc(NC(=O)c2ccc3c(c2)NC(=O)CS3)c1`, which Potency is on record?
Answer: Its Potency is inconclusive: 39.8 µM [inhibitor, single point].

Question: For `COc1cc(OC)c(OC)cc1CN1CCN(S(=O)(=O)c2ccc(NC(C)=O)cc2)CC1`, which Potency is on record?
Answer: Its Potency is inconclusive: 2 µM [inhibitor, full curve].

Question: How did the Potency turn out when `COCCn1c(=O)c(C)nc2cnc(N(C)C)nc21` was run?
Answer: The Potency was inconclusive: 31.6 µM [inhibitor, single point].

Question: `COc1ccc(-c2nc3c4ccccc4ccn3c2Cc2ccccc2)cc1OC` was tested. Which Potency did it give?
Answer: The Potency was inconclusive: 39.8 µM [inhibitor, partial curve, poor fit].

Question: How did the Potency turn out when `CC(/C=N/n1c(-c2ccco2)n[nH]c1=S)=C\c1ccccc1` was run?
Answer: Its Potency is inconclusive: 56.2 µM [inhibitor, partial curve, poor fit].

Question: How did the Potency turn out when `COc1cc(C2c3sc(=O)[nH]c3SC3C4CCC(C4)C23)ccc1O` (stereo unspecified) was run?
Answer: The Potency was inconclusive: 12.6 µM [inhibitor, full curve].

Question: For `Cc1nn(C(=O)CCC(=O)N2CCC(CCOc3ccccc3)C2)c2ccccc12` (stereo unspecified), which Potency is on record?
Answer: Its Potency is inconclusive: 100 µM [inhibitor, single point].

Question: How did the “activity change, negative = inhibition” value turn out when `COc1ccc(C2SCCN2C(=S)Nc2cccc(Cl)c2)cc1` (stereo unspecified) was run?
Answer: Its value is inactive: -26.9%.

Question: How did the “activity change, negative = inhibition” value turn out when `CCCn1cc(-c2ccncc2)cc1C(=O)N1CCN(c2ccccc2F)CC1` was run?
Answer: The value was inactive: -6.01%.

Question: How did the Potency turn out when `Cc1ccc(SCCNC(=S)Nc2cc(C)cc(C)c2)cc1` was run?
Answer: Its Potency is inconclusive: 35.5 µM [inhibitor, partial curve, poor fit].

Question: With `COc1cc(Oc2ccnc3cc(OC)c(OC)cc23)ccc1NC(=O)NC(C)c1nccs1` (stereo unspecified) as the compound, how does the activity change, negative = inhibition read?
Answer: Its activity change, negative = inhibition is inconclusive: -54.6% [inhibitor] [at 57.4 µM].

Question: For `COCCNC(=O)NC[C@H]1O[C@@H]2C[C@@H](CC(=O)N3CCC(F)(F)C3)O[C@@H]2[C@@H]1O`, which Potency is on record?
Answer: Its Potency is inconclusive: 10 µM [inhibitor, full curve].

Question: With `Cc1ccc(S(=O)(=O)NN2C(=O)/C(=C/c3ccc(F)cc3)SC2=S)cc1` as the compound, how does the “activity change, negative = inhibition” value read?
Answer: The value was inactive: -14.4%.

Question: For `Clc1ccccc1OCCn1nnc2ccccc21`, which Potency is on record?
Answer: Its Potency is inconclusive: 15.8 µM [inhibitor, full curve, poor fit].

Question: Which Potency does the source give for `C[Si](C)(C)CN1CCN(CC(=O)Nc2ccccc2Cl)CC1` here?
Answer: Its Potency is inconclusive: 79.4 µM [inhibitor, single point].

Question: How did the “activity change, negative = inhibition” value turn out when `COC(=O)c1ccc(Oc2nc(N(C)C)nc(N3CCCCC3)n2)cc1` was run?
Answer: Its value is inactive: -28.3%.

Question: Which “activity change, negative = inhibition” value does the source give for `Fc1cccc(COc2ccccc2CNc2ccccc2)c1` here?
Answer: The value was inactive: -23.6%.

Question: `COc1ccc(N2C(=O)C3(CCCCC3)C2C(=O)NCCCN2CCCC2=O)cc1` (stereo unspecified) was tested. Which “activity change, negative = inhibition” value did it give?
Answer: Its value is inactive: 15%.

Question: For `CCN1C(=O)/C(=C\C(=O)c2cccs2)c2cc(Br)ccc21`, which Potency is on record?
Answer: Its Potency is inconclusive: 39.8 µM [inhibitor, partial curve, poor fit].

Question: Which “activity change, negative = inhibition” value does the source give for `COc1ccccc1NC(=O)CSc1nc2ccccc2c(=O)n1C` here?
Answer: Its value is inactive: 6.23%.

Question: Which Potency does the source give for `O=C(O)CCCC(=O)N1CCNCC1` here?
Answer: The Potency was inconclusive: 56.2 µM [inhibitor, partial curve, poor fit].

Question: `CCCCn1c(=O)[nH]c(=O)c2c1nc(-c1ccc(-c3ccccc3Br)o1)n2CCOC` was tested. Which Potency did it give?
Answer: Its Potency is inconclusive: 44.7 µM [inhibitor, partial curve, poor fit].

Question: How did the Potency turn out when `O=S(=O)(NCC(c1ccco1)N1CCCCC1)c1cccc(C(F)(F)F)c1` (stereo unspecified) was run?
Answer: Its Potency is inconclusive: 50.1 µM [inhibitor, partial curve, poor fit].

Question: With `CC(C)C1N(C(=O)N(C)C)CCN1S(=O)(=O)c1ccccc1` (stereo unspecified) as the compound, how does the “activity change, negative = inhibition” value read?
Answer: The value was inactive: -0.162%.

Question: With `O=C(Cn1nc(-c2cccc([N+](=O)[O-])c2)c2ccccc2c1=O)NC1CCCCC1` as the compound, how does the Potency read?
Answer: Its Potency is inconclusive: 112 µM [inhibitor, single point].

Question: How did the Potency turn out when `COC(=O)c1cc(=O)nc2sc3ccccc3n12` was run?
Answer: Its Potency is inconclusive: 5.62 µM [inhibitor, partial curve, poor fit].

Question: With `COc1ccc(N2Cc3c(NCc4ccc5c(c4)OCO5)ncnc3N(C)CC2=O)cc1` as the compound, how does the Potency read?
Answer: The Potency was inconclusive: 56.2 µM [inhibitor, partial curve].

Question: `Cc1ccc(CN(CC(O)COc2cccc3[nH]cc(C)c23)C(C)(C)C)cc1` (stereo unspecified) was tested. Which Potency did it give?
Answer: Its Potency is inconclusive: 50.1 µM [inhibitor, partial curve, poor fit].

Question: With `c1cncc(C2=NOC3(CCN(Cc4c[nH]c5ccccc45)CC3)C2)c1` as the compound, how does the activity change, negative = inhibition read?
Answer: Its activity change, negative = inhibition is inactive: 2.88% [at 6.33 µM].

Question: With `CCSC1=NC(C)(C)C=C(/C=C/c2ccc(Cl)cc2Cl)N1` as the compound, how does the Potency read?
Answer: Its Potency is active: 39.8 µM.

Question: Which Potency does the source give for `Cc1ccccc1N1C(S)=C(C#N)C(=O)NC1c1cccs1` (stereo unspecified) here?
Answer: The Potency was inconclusive: 39.8 µM [inhibitor, partial curve, poor fit].

Question: For `Cc1ccc(-n2ncc3c(NC4CCCCCC4)ncnc32)cc1Cl`, which Potency is on record?
Answer: The Potency was inconclusive: 112 µM [inhibitor, partial curve, poor fit].

Question: With `Cc1cc(NCc2ccccc2)n2ncc(-c3ccccc3)c2n1` as the compound, how does the “activity change, negative = inhibition” value read?
Answer: The value was inactive: 1.51%.

Question: `Cc1cccc(OCC(=O)N/N=C/c2cc([N+](=O)[O-])ccc2N2CCOCC2)c1` was tested. Which “activity change, negative = inhibition” value did it give?
Answer: The value was inactive: 0.741%.

Question: How did the Potency turn out when `Cc1ccc(S(=O)(=O)CCC(O)c2ccc(Cl)cc2)cc1` (stereo unspecified) was run?
Answer: The Potency was inconclusive: 44.7 µM [inhibitor, partial curve, poor fit].

Question: `CCCCN(CCCNC(=O)c1cc(Nc2ccc(OC)c(OC)c2)nc2ccccc12)Cc1ccccc1` was tested. Which Potency did it give?
Answer: The Potency was inconclusive: 56.2 µM [inhibitor, partial curve, poor fit].

Question: How did the Potency turn out when `CCOc1ccc(OCCC(=O)OCC(=O)Nc2cc(F)ccc2F)cc1` was run?
Answer: The Potency was inconclusive: 112 µM [inhibitor, partial curve, poor fit].

Question: `CCN(CC)c1ccc(C(=C2C=CC(=[N+](CC)CC)C=C2)c2ccc(S(=O)(=O)O)cc2S(=O)(=O)[O-])cc1` was tested. Which Potency did it give?
Answer: The Potency was inconclusive: 11.2 µM [inhibitor, full curve].

Question: For `O=C(O)CCC(=O)N1CCC(O)CC1`, which “activity change, negative = inhibition” value is on record?
Answer: The value was inactive: -17%.

Question: For `CC(C)c1ccc(C2OC(CCc3ccccc3)Cc3[nH]c(=S)[nH]c(=O)c32)cc1` (stereo unspecified), which Potency is on record?
Answer: The Potency was inconclusive: 39.8 µM [inhibitor, partial curve].
